Results deposited as PubChem BioAssay AID1159584 (Peter MacCallum Cancer Centre, 2016).

- Aim: 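Genes that CDH1-null MCF10A cells selectively depend on to survive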 (primary screen)
- Cell system: human MCF10A breast epithelial cells, parental and CDH1-null
- Knock-down reagent: siRNA against human genes
- Detection: 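Cell viability by CellTiter-Glo ATP luminescence, each line scaled to the mean of mock wells across plates, then CDH1-null over parental ratio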
- Reading the numbers: CDH1-null / parental viability ratio: higher = CDH1-null cells survive relatively better than parental; CDH1-null viability vs mock: higher = more viable CDH1-null cells
Here is one part, drawn at random, of about 18,000 reagents. Not all columns of the deposit are shown. Not stated in the record: the amount of reagent, the time to read-out.

gene knocked down	CDH1-null / parental viability ratio	CDH1-null viability vs mock (fraction of mock)
POLE	0.94	0.66
SNAPC1	1.21	1.02
CDHR3	0.9	0.74
ADM2	1.07	0.94
TMEM53	1.31	0.97
IGFBP1	1.06	0.93
FAM9A	0.84	0.58
KCNA10	1.12	1.06
ANKMY1	0.73	0.59
KMT2D	1.09	1.02
ENPP2	0.82	0.62
MLLT11	0.88	0.77
ZNF668	0.82	0.51
MCF2L2	0.97	0.87
UNC45B	0.77	0.68
DEFB106A	0.95	0.96
PFDN6	0.73	0.57
HNF4G	0.91	0.96
CDCA3	1.09	0.37
TMOD4	1.04	0.94
ALKBH1	1.07	0.76
SHKBP1	0.74	0.7
ARL16	1.06	0.9
FLOT1	1.12	0.85
CLDN19	0.99	0.78
RUNDC3B	1.52	0.76
METTL26	0.86	0.57
EAPP	0.92	0.9
CBX1	1.24	0.72
NAT9	1	0.76
PRKACA	0.89	0.84
ZBTB40	0.94	0.3
RHOF	1	0.96
DEFB112	0.92	0.47
RPL22	0.92	0.7
DPP8	1.23	0.59
ZNF718	1.08	0.94
ZNF354B	0.62	0.41
PTGR1	0.95	0.87
CCM2L	1.06	0.66
PSMD5	1.2	1.1
L2HGDH	0.91	0.86

Not a retest: 7 of the entries above.
gene knocked down	CDH1-null / parental viability ratio	CDH1-null viability vs mock (fraction of mock)
CDHR3	0.9	0.74
ADM2	1.07	0.94
TMEM53	1.31	0.97
IGFBP1	1.06	0.93
FAM9A	0.84	0.58
KCNA10	1.12	1.06
ANKMY1	0.73	0.59

Additional entries follow.
gene knocked down	CDH1-null / parental viability ratio	CDH1-null viability vs mock (fraction of mock)
PRUNE1	1.09	1.02
H2AX	0.74	0.34
ANKRA2	0.95	0.82
CDH9	0.89	0.64
EFNA2	1.02	0.92
CARD10	0.98	0.96
DENND4A	1.23	0.91
SCRT2	0.95	0.59
EVI2B	1.05	0.86
TAP2	0.97	0.89
SNRPN	0.95	0.72
CYP3A4	1.02	0.97
ERMAP	0.91	0.61
MAP3K2	0.99	0.92
GAD1	1.1	0.8
LOC155060	0.75	0.64
GPRC6A	1.47	0.88
DCTN1	0.98	0.84
PANX2	1.13	0.26
ERCC1	1.07	0.75
DMPK	0.96	0.86
ACVRL1	0.93	0.75
PRR3	1.08	0.93
ZNF286A	0.91	0.75
CENPX	1.18	0.84
RYR2	1.15	1
